{
  "source": "PubChem BioAssay AID493014",
  "about": "(National Center for Advancing Translational Sciences (NCATS), 2011)",
  "note": "The list shows a part of the results. These are further read-outs of the screen, such as a control signal, another cell line or another target. No call is given for them. The list favours compounds with an active or inconclusive main result. Potencies come from curve fits of mixed quality, noted in brackets.",
  "data": [
    {"test": "qHTS Assay to Find Inhibitors of Chronic Active B-Cell Receptor Signaling", "details": "ABC-DLBCL IkBa-CBG/CBR reporter, luminescence ratio (green luciferase fused to IkBa over red control in TMD8 lymphoma cells), 4 h; measured here: CBR red luminescence, cell number", "procedure,_shortened": "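Compounds up to 46 uM were incubated four hours with TMD8 cells whose green CBG68 luciferase is fused to IkappaBalpha; red CBR luminescence normalised the signal, and concentration-effect curves were fitted to fusion, red and ratio data.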", "values": [
      {"smiles": "C=CCNC(=S)NCC", "AC50": "5.62 µM [falling, single point]"},
      {"smiles": "O=C(CN1CCN(C(=O)CNC(=O)c2ccc3c(c2)OCO3)CC1)Nc1cccc(F)c1", "AC50": "14.6 µM [rising, partial curve]"},
      {"smiles": "COc1ccc(Br)cc1C(=O)Nc1cc(C)cc(C)c1", "AC50": "6.31 µM [falling, single point]"},
      {"smiles": "CC1CCCCN1C(=O)C(Cc1ccccc1)N1C(=O)C2CCCCC2C1=O", "note": "(stereo unspecified)", "AC50": "29.1 µM [rising, single point]"},
      {"smiles": "CCn1c(=N)n(CC(=O)c2ccc(OC)cc2)c2ccccc21", "AC50": "2 µM [rising, partial curve]"},
      {"smiles": "O=C1COc2ccc(C(=O)COC(=O)/C=C/c3ccco3)cc2N1", "AC50": "6.51 µM [rising, partial curve, poor fit]"},
      {"smiles": "Cc1cccc(NC(=O)CCCCCN2C(=O)[C@@H]3Cc4ccccc4CN3C2=O)c1", "AC50": "22.4 µM [falling, single point]"},
      {"smiles": "O=c1cc2oc3cc(O)c(O)cc3c(-c3ccccc3[N+](=O)[O-])c-2cc1O", "AC50": "14.1 µM [rising, partial curve]"},
      {"smiles": "COc1cc(C(=O)Nc2ccc(N(C)C)cc2)cc(OC)c1OC", "AC50": "2.51 µM [rising, full curve, poor fit]"},
      {"smiles": "CCn1c(COc2cccc(OC)c2)nnc1SCC(=O)Nc1cccc(OC)c1", "AC50": "29.1 µM [falling, single point]"},
      {"smiles": "CCc1c(C)c(C#N)c2nc3ccccc3n2c1NCc1ccco1", "AC50": "23.1 µM [falling, partial curve, poor fit]"},
      {"smiles": "COc1ccc(-c2nnc(NC(=O)c3cc(Cl)ccc3Cl)o2)cc1", "AC50": "1.84 µM [falling, partial curve]"},
      {"smiles": "Fc1ccccc1CNc1ccc(Cl)cc1", "AC50": "3.98 µM [rising, full curve]"},
      {"smiles": "COC(=O)c1ccc(-c2nc3cc(Cl)c(N)cc3s2)cc1", "AC50": "0.326 µM [falling, full curve, poor fit]"},
      {"smiles": "O=C(Nc1ccc(CN2CCOCC2)cc1)c1ccc(-c2cccc(Cl)c2)o1", "AC50": "25.1 µM [falling, single point]"},
      {"smiles": "CCOc1ccc(-c2cc(CCCC(=O)NCc3cccnc3)no2)cc1", "AC50": "3.26 µM [falling, partial curve]"},
      {"smiles": "O=C(NC(=S)Nc1ccc(Br)cc1)C1CCCCC1", "AC50": "0.708 µM [rising, full curve, poor fit]"},
      {"smiles": "CCCCN(C(=O)c1ccc(NC2CC2)c([N+](=O)[O-])c1)c1c(N)n(CCCC)c(=O)[nH]c1=O", "AC50": "32.6 µM [rising, partial curve, poor fit]"},
      {"smiles": "Cc1ccc2sc(N(CCCN(C)C)C(=O)c3ccc(S(=O)(=O)N(C)Cc4ccccc4)cc3)nc2c1C", "AC50": "29.1 µM [falling, single point]"},
      {"smiles": "Cn1nc(C(=O)Nc2cccc(S(N)(=O)=O)c2)c2ccccc2c1=O", "AC50": "10 µM [rising, partial curve, poor fit]"},
      {"smiles": "COC(=O)c1ccc2c(c1)N(C)S(=O)(=O)c1cnc(SCC(=O)C(C)(C)C)nc1-2", "AC50": "0.708 µM [rising, full curve, poor fit]"},
      {"smiles": "CC(C)(C)OC(=O)N1CC(O)CC1C(=O)OCC(=O)c1ccc(Cl)cc1", "note": "(stereo unspecified)", "AC50": "35.5 µM [rising, single point]"},
      {"smiles": "COc1ccccc1C(=O)N1CCC(N2CCN(c3ccccc3)CC2)CC1", "AC50": "3.16 µM [falling, single point]"},
      {"smiles": "Cc1ccc(N(CC(=O)NC2CCCCC2)C(=O)CNC(=O)c2ccco2)cc1F", "AC50": "14.1 µM [falling, partial curve, poor fit]"},
      {"smiles": "Cc1ccc(-c2noc(-c3ccno3)n2)cc1", "AC50": "3.55 µM [rising, partial curve, poor fit]"},
      {"smiles": "Cc1ccccc1-n1nnnc1Sc1nnnn1-c1ccccc1", "AC50": "29.1 µM [falling, single point]"},
      {"smiles": "Cc1cccc(/C(N)=N/OC(=O)CCc2ccccc2)c1", "AC50": "3.16 µM [rising, partial curve, poor fit]"},
      {"smiles": "Cc1cccc(-n2c(CNC(=O)c3ccc(S(=O)(=O)N(C)C)cc3)nnc2SCC(=O)Nc2ccc(F)cc2)c1", "AC50": "29.1 µM [falling, single point]"},
      {"smiles": "COc1cc(C(F)(F)F)nc2ccc(C#CCOC(=O)Nc3ccccc3)cc12", "AC50": "7.08 µM [rising, partial curve, poor fit]"},
      {"smiles": "O=C(NCc1ccc(Cl)cc1Cl)C1CCN(S(=O)(=O)c2ccc3c(c2)OCCCO3)CC1", "AC50": "0.82 µM [rising, partial curve, poor fit]"},
      {"smiles": "Cc1ccc(-n2c(=O)c(C#N)cc3c(=O)n4cccc(C)c4nc32)cc1", "AC50": "29.1 µM [falling, single point]"},
      {"smiles": "C=CCOC(=O)C1=C(C)OC(N)=C(C#N)C1c1ccc(F)cc1", "note": "(stereo unspecified)", "AC50": "22.4 µM [falling, single point]"},
      {"smiles": "O=C(Oc1ccc(-c2cnc3ccccc3n2)cc1)c1ccc(Br)o1", "AC50": "0.103 µM [rising, full curve]"},
      {"smiles": "COc1ccccc1-c1oc2ccccc2c1-c1ccc2c(c1)OCO2", "AC50": "5.17 µM [rising, partial curve, poor fit]"},
      {"smiles": "COc1ccc(CN=C2NN=C(c3ccc(Cl)cc3)CS2)cc1", "AC50": "6.31 µM [falling, partial curve, poor fit]"},
      {"smiles": "COc1ccccc1/C=C1\\SC(=S)N(CCC(=O)NCCCn2ccnc2)C1=O", "AC50": "3.98 µM [falling, full curve]"},
      {"smiles": "CCOc1ccc(C(c2c(NC(=O)c3ccccc3)sc(C)c2C)N2CCN(CCO)CC2)cc1", "note": "(stereo unspecified)", "AC50": "18.4 µM [falling, partial curve]"},
      {"smiles": "CC(=O)Oc1ccc(N(C(C)=O)S(=O)(=O)c2cccs2)c2ccccc12", "AC50": "29.1 µM [falling, single point]"},
      {"smiles": "COc1cc2c(cc1OC)-c1cc(Nc3ccc(F)cc3)nc(=O)n1CC2", "AC50": "2.51 µM [rising, partial curve, poor fit]"},
      {"smiles": "O=C(O)c1cccc(C(=O)c2cccc(C(=O)O)c2)c1", "AC50": "35.5 µM [falling, single point]"},
      {"smiles": "CC(NC(=O)c1ccc([N+](=O)[O-])cc1[N+](=O)[O-])c1ccc(-c2ccccc2)cc1", "note": "(stereo unspecified)", "AC50": "1.46 µM [falling, partial curve, poor fit]"}
    ]}
  ]
}
